Source: US12590126B2, “Compounds for selective disruption of protein-protein interactions” (SyntheX, Inc., priority 2017, dated 2026)
At least one peptide structure holds a part that was inferred or is arguable (an end, a ring closure or a residue). Where a SMILES comes first, the peptide text is derived from it. [ ]: non-standard residue; d: D form. The star is where a group is joined. Dansyl = CN(C)c1cccc2c(S(=O)(=O)*)cccc12; dNle = CCCC[C@@H](N)C(=O)O; Sar = CNCC(=O)O

Tested on: SSP-25 cells
Test: xCELLigence cell death assay in SSP-25 cells (cellular assay for RAD51 inhibition)
Assay type: cell-based
Details: concentration gradient added at 20 hour mark, only values with R^>0.85 shown
Method: The efficacy of the peptides described herein was assessed by their ability to cause death in SSP-25 cells, which have amplification of RAD51 and are dependent on its activity.
First, 5,000 SSP25 cells were plated, and adherence and growth was measured for 20 hours using live measurements of current impedance through the plate using the xCELLigence™ instrument. At the 20 hour mark, a concentration gradient of each compound or a PBS control was added to the SSP-25 cells, which were cultured in […] RMPI media with 10% FBS. […] Only values with confidence and R^>0.85 are shown.

`CCCC[C@@H](NC(=O)[C@@H](CC(C)C)NC(=O)CN(C)S(=O)(=O)c1cccc2c(N(C)C)cccc12)C(=O)N[C@H](CCCNC(=N)N)C(=O)N[C@H](CO)C(=O)N[C@@H](C(=O)N[C@H](CCCNC(=N)N)C(=O)N[C@H](CC(C)C)C(=O)N[C@H](CCCNC(=N)N)C(=O)N[C@@H](C(=O)NCC(=O)N[C@H](CC(C)C)C(=O)N[C@H](CCCNC(=N)N)C(=O)N[C@H](CCCNC(=N)N)C(=O)N[C@H](CCCNC(=N)N)C(=O)N[C@H](CCCNC(=N)N)C(=O)N[C@H](CCCNC(=N)N)C(=O)N[C@H](CCCNC(=N)N)C(=O)N(C)CC(=O)N(C)CC(=O)OC)C(C)C)C(C)C` [Compound 20, DANSYL-Sarcosine-l{d-norLeucine}rsvrlrvGlrrrrrr-sarcosine-sarcosine-OMe] was tested. Which IC50 did it give?
The IC50 was 8.6 µM.

For `CCCC[C@@H](NC(=O)[C@@H](CC(C)C)NC(=O)CN(C)S(=O)(=O)c1cccc2c(N(C)C)cccc12)C(=O)N[C@H](CCCNC(=N)N)C(=O)N[C@H](CO)C(=O)N[C@@H](C(=O)N[C@H](CCCNC(=N)N)C(=O)N[C@H](CC(C)C)C(=O)N[C@H](CCCNC(=N)N)C(=O)N[C@@H](C(=O)NCC(=O)N[C@H](CC(C)C)C(=O)N[C@H](CCCNC(=N)N)C(=O)N[C@H](CCCCN)C(=O)N[C@H](CCCNC(=N)N)C(=O)N[C@H](CCCNC(=N)N)C(=O)N[C@H](CCCNC(=N)N)C(=O)N[C@H](CCCNC(=N)N)C(=O)N[C@H](CCCNC(=N)N)C(N)=O)C(C)C)C(C)C` [Compound 19, DANSYL-Sarcosine-l{d-norLeucine}rsvrlrvGlrkrrrrr-NH2] (Dansyl-[Sar][dL][dNle][dR][dS][dV][dR][dL][dR][dV]G[dL][dR][dK][dR][dR][dR][dR][dR]-NH2), which IC50 is on record?
The IC50 was 6.2 µM.
